Data taken from PubChem BioAssay (NCATS).
The inconclusive results got no clear call from the source; some entries with a clear call stand among them for comparison. For some of these results: Potencies of inconclusive entries are doubtful fits and often do not repeat. Calls of active or inactive are those of the source. Unless noted, calls follow the shape of the dose curve; as a rule, active = well fitted curve in the direction sought with a large enough effect; inconclusive = small, poorly fitted or top-dose-only effect, or another doubt; inactive = no such curve, though single readings can be large; an effect the other way counts as inactive or inconclusive.

By UniProt entry, the sequences of proteins in these tests, tags left out.
UniProt P36969, whole entry, looked up: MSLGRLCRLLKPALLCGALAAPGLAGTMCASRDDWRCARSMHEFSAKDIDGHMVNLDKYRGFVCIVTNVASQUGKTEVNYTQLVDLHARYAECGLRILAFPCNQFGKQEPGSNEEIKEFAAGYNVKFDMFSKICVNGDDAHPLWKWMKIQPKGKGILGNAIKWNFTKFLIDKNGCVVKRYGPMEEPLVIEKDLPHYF

Experiments:
[1] = qHTS of pediatric cancer cell lines to identify multiple opportunities for drug repurposing: Confirmatory screen for LAN-5 cells (AID 1347113); also: nearly all actives have a fitted effect of over 65% in size; also: potency is read from the fitted curve at half-maximal effect
In short: (§1)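 Viability after 48 h compound treatment at 37C, 500-1,000 cells/well, read as ATP luminescence with CellTiter-Glo. Primary screens used 11-point (MIPE, 0.78 nM-46 µM) or 8-point (NPC, 0.59 nM-46 µM) final concentrations; follow-up screens used 11-point dilutions.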

[2] = qHTS of pediatric cancer cell lines to identify multiple opportunities for drug repurposing: Confirmatory screen for NB-EBc1 cells (AID 1347115); details: NB-EBc1 neuroblastoma cells, viability (cytotoxicity); activity change, negative = cytotoxic: at 45.9 µM (top of the series);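 also: cells exposed to compound for 48 h before the viability read; nearly all actives have a fitted effect of over 45% in size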; also: potency is read from the fitted curve at half-maximal effect
In short: as §1

[3] = qHTS of pediatric cancer cell lines to identify multiple opportunities for drug repurposing: Confirmatory screen for RD cells (AID 1347124); details: RD rhabdomyosarcoma cell viability; activity change, negative = cytotoxic: at 45.9 µM (top of the series);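 also: cells exposed to compound for 48 h before viability readout; nearly all actives have a fitted effect of over 65% in size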
In short: as §1

[4] = qHTS of pediatric cancer cell lines to identify multiple opportunities for drug repurposing: Primary screen for Rh18 cells (AID 1347102); also: potency is read from the fitted curve at half-maximal effect; nearly all actives have a fitted effect of over 65% in size
In short: as §1

[5] = qHTS of pediatric cancer cell lines to identify multiple opportunities for drug repurposing: Confirmatory screen for SJ-GBM2 cells (AID 1347116); also: nearly all actives have a fitted effect of over 60% in size; also: potency is read from the fitted curve at half-maximal effect
In short: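 Viability measured as metabolically active cells via CellTiter-Glo luminescence following 48 hours of compound exposure, 11-point dilutions in confirmatory testing. 500-1,000 cells/well plated 5 hours before dosing; controls were DMSO and 2.3 µM bortezomib.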

[6] = qHTS of pediatric cancer cell lines to identify multiple opportunities for drug repurposing: Confirmatory screen for Saos-2 cells (AID 1347127); also: nearly all actives have a fitted effect of over 60% in size; also: potency is read from the fitted curve at half-maximal effect
In short: as §1

[7] = Quantitative High-Throughput drug screen in 47 multiple myeloma cell lines against the NCATS MIPE library collection: Karpas417_ECACC cell viability assay (AID 1918961); details: Karpas417 myeloma viability, CellTiter-Glo ATP luminescence, 48 h; series mostly up to 45.8 µM; also: potency is read from the fitted curve at half-maximal effect
In short: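 CellTiter-Glo luminescence (ATP) after 48 h compound exposure, 37C/5% CO2; 500 cells/well; MIPE 4.0 approved/investigational drugs pinned in; DMSO = 100%, media only = 0% viability.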

[8] = Quantitative High-Throughput drug screen in 47 multiple myeloma cell lines against the NCATS MIPE library collection: JIM1_ECACC cell viability assay (AID 1918964; also: potency is read from the fitted curve at half-maximal effect)
In short: (§2)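 Approved and investigational drugs from MIPE 4.0 were added by pin tool to 500 cells per well. After 48 hours at 37C, ATP-based CellTiter-Glo luminescence indicated remaining viability.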

[9] = Quantitative High-Throughput drug screen in 47 multiple myeloma cell lines against the NCATS MIPE library collection: KMS21BM_JCRB cell viability assay (AID 1918974); details: ATP luminescence, 48 h; viability: at 45.8 µM (top of the series); also: potency is read from the fitted curve at half-maximal effect
In short: as §2

MKL-1 = experiment: qHTS assay to identify novel small-molecules to repurpose for Merkel cell carcinoma treatment (AID 1296009); details: MCC and control cell lines, CellTiter-Glo viability, 72 h; series mostly up to 46 µM; also: potency is read from the fitted curve at half-maximal effect; nearly all actives have a fitted effect of over 60% in size
In short: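 CellTiter-Glo luminescence after 72 hr compound exposure at 37 degree celsius gave cell viability. Libraries NPC and MIPE were run as 8- and 11-point dose responses; RLUs normalized to DMSO (negative) and no-cell (cytotoxicity) controls.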

[10] = qHTS of pediatric cancer cell lines to identify multiple opportunities for drug repurposing: Primary screen for RD cells (AID 1347104); details: RD rhabdomyosarcoma viability, CellTiter-Glo luminescence, 48 h; activity change, negative = cytotoxic: at 46 µM (top of the series); also: nearly all actives have a fitted effect of over 55% in size; also: potency is read from the fitted curve at half-maximal effect
In short: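 Primary screen of approved and investigational compounds on cells in growth media at 37 degrees C, 5% CO2. MIPE set at 11-point and NPC set at 8-point dilutions; viability scored by ATP-based luminescence at 48 hours.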

[11] = system: Zika virus NS2B-NS3 protease; experiment: Primary screen GU AMC qHTS for Zika virus inhibitors (AID 1347154); also: nearly all actives have a fitted effect of over 70% in size; also: potency is read from the fitted curve at half-maximal effect
In short: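 Unlinked Zika NS2B hydrophilic domain–NS3 protease complex at 25 nM in 10 mM Tris-HCl pH 8.0, 0.01% Tween 20, with an AMC peptide substrate. Fluorescence change (340/450 nm) over 15 min at room temperature, normalized to controls, fitted to 4-parameter Hill.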

[12] = A High-Content qHTS Against Drug Library for the Identification of Small Molecules that Inhibit DYT1 Early Onset Primary Dystonia-Associated Cell Pathology (AID 1645839; calls by dose curve; also: potency is read from the fitted curve at half-maximal effect)
In short: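 Cells were seeded and left for 24 h, then dosed with compound alongside tetracycline induction of mutant EGFP-TorsinA. They were incubated for 48 h, fixed in 4% paraformaldehyde, permeabilized and imaged for mislocalization (%pathology) and cell count.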

[13] = target: Phospholipid hydroperoxide glutathione peroxidase GPX4 (Homo sapiens) (UniProt P36969); experiment: Primary qHTS Assay for Inhibitors of Recombinant Selenoprotein Glutathione Peroxidase 4 (GPX4) (AID 1845192); also: potency is read from the fitted curve at half-maximal effect; nearly all actives have a fitted effect of over 65% in size
In short: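 Steps: GPX4 plus compound, 30 min RT; add GR/GSH/NADPH master mix; start with cumene hydroperoxide; read 340/450 nm fluorescence at 0 and 15 min. Finals were 200 nM GPX4, 1 mM GSH, 0.5 mM CHP, 0.5 mM NADPH, 100 nM GR.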

[14] = qHTS of pediatric cancer cell lines to identify multiple opportunities for drug repurposing: Primary screen for SK-N-MC cells (AID 1347093); details: SK-N-MC viability, CellTiter-Glo luminescence, 48 h; activity change, negative = cytotoxic: at 46 µM (top of the series); also: potency is read from the fitted curve at half-maximal effect
In short: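 Metabolically active cells were quantified by ATP-dependent luminescence (CellTiter-Glo, 15 min at room temperature) following 48 h treatment. Cells had been plated at 500-1,000 per well and settled for 5 h beforehand.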

[15] = qHTS of pediatric cancer cell lines to identify multiple opportunities for drug repurposing: Primary screen for U-2 OS cells (AID 1347096); also: potency is read from the fitted curve at half-maximal effect; nearly all actives have a fitted effect of over 50% in size
In short: as §1

[16] = qHTS of pediatric cancer cell lines to identify multiple opportunities for drug repurposing: Primary screen for Rh30 cells (AID 1347107); also: potency is read from the fitted curve at half-maximal effect; nearly all actives have a fitted effect of over 75% in size
In short: as §1

[17] = NS1 protein of Zika virus - qHTS assay to identify small molecule inhibitors in human HEK 293 cells (AID 1347053); also: potency is read from the fitted curve at half-maximal effect; nearly all actives have a fitted effect of over 55% in size
In short: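 Read-out is a two-antibody TR-FRET for ZIKV NS1, normalized between uninfected cells and infected cells. Compound added 1 h before MR766 infection at MOI 0.5; human HEK 293 cells incubated 24 h, 37 C.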

[18] = qHTS of pediatric cancer cell lines to identify multiple opportunities for drug repurposing: Primary screen for LAN-5 cells (AID 1347100); also: potency is read from the fitted curve at half-maximal effect
In short: as §1

Measured: Potency

NC(CO)(CO)CO
inactive: [2] | [3]
inconclusive: [1] 36.9 µM [rising, partial curve, poor fit]

COc1cc2c(NC3CCN(C(C)C)CC3)nc(C3CCCCC3)nc2cc1OCCCN1CCCC1
active: [4] 23.5 µM | [8] 23.5 µM
inconclusive: [1] 23.3 µM [cytotoxic, partial curve, poor fit] | [2] 26.1 µM [cytotoxic, single point] | [5] 36.9 µM [cytotoxic, single point] | [6] 36.9 µM [cytotoxic, single point] | [7] 6.62 µM [cytotoxic, partial curve, poor fit] | [9] 11800 nM [cytotoxic, partial curve, poor fit] | MKL-1 = 26.4 µM [inhibitor, single point]

CCCCc1ncc(/C=C(\Cc2cccs2)C(=O)O)n1Cc1ccc(C(=O)O)cc1
inactive: [10] | [11] | [12]

CCC(CC)C(c1ccc(Nc2nc3ccccc3s2)cc1)n1cncn1 (centres undefined)
inconclusive: [13] 32.1 µM [inhibitor, single point]

O=C(Nc1ccc([N+](=O)[O-])cc1)Nc1ccc([N+](=O)[O-])cc1
inactive: [12]

COc1ccc(C(=O)c2ccccc2)c(O)c1
inactive: [14] | [1] | [2] | [5] | [3] | [6]

CCN1CCCC1CN (centres undefined)
inactive: [10]

CN(C)c1ccc(C(=O)NCCCCCCC(=O)NO)cc1
inconclusive: [5] 3.69 µM [cytotoxic, partial curve, poor fit]
active: [1] 1.85 µM | [2] 2.33 µM | [7] 0.132 µM | [8] 0.0935 µM | [9] 41.8 nM | MKL-1 = 1.66 µM

COC(=O)[C@H]1[C@H]2C[C@@H]3c4[nH]c5cc(OC)ccc5c4CCN3C[C@H]2C[C@@H](OC(=O)/C=C/c2ccc(O)c(OC)c2)[C@@H]1OC
inconclusive: [15] 33.5 µM [cytotoxic, single point] | [4] 29.9 µM [cytotoxic, single point] | [10] 29.9 µM [cytotoxic, single point] | [16] 11.9 µM [cytotoxic, partial curve, poor fit] | [11] 28.7 µM [inhibitor, partial curve] | [12] 3.55 µM [inhibitor, partial curve, poor fit] | [13] 11.2 µM [inhibitor, partial curve]
active: [14] 5.96 µM

CC(C)(C)NC(=O)[C@H]1CN(Cc2cccnc2)CCN1C[C@@H](O)C[C@@H](Cc1ccccc1)C(=O)N[C@H]1c2ccccc2C[C@H]1O
inactive: [3] | [7] | [8]
inconclusive: [17] 37.2 µM [inhibitor, single point] | [18] 26.4 µM [cytotoxic, single point] | [4] 23.5 µM [cytotoxic, single point] | [16] 1.87 µM [cytotoxic, full curve] | [5] 0.293 µM [rising, full curve, poor fit] | [6] 36.9 µM [cytotoxic, single point] | [9] 7.4 nM [rising, full curve, poor fit]
